{"source": "patent US20090018059", "key": {"[1]": {"system": "Oct4/Sox2 heterodimer (Mus musculus)", "experiment": "EMSA", "details": "complex C, protein in an extract"}, "Sox2 (Mus musculus) [2]": {"molecular_target": "Sox2 (Mus musculus) (UniProt P48432)", "experiment": "EMSA", "details": "complex E, Sox2 monomer; protein in an extract"}, "[3]": {"molecular_target": "Oct4 (Pou5f1) (Mus musculus) (UniProt P20263)", "experiment": "EMSA", "details": "complex A, protein in an extract"}, "[4]": {"system": "Oct4/Sox2 heterodimer (Mus musculus)", "experiment": "competition with a labelled probe", "details": "protein in an extract"}, "Sox2 (Mus musculus) [5]": {"molecular_target": "Sox2 (Mus musculus) (UniProt P48432)", "experiment": "competition with a labelled probe", "details": "protein in an extract"}, "[6]": {"molecular_target": "Oct4 (Pou5f1) (Mus musculus) (UniProt P20263)", "experiment": "competition with a labelled probe", "details": "protein in an extract"}, "[7]": {"details": "20-fold excess non-specific competitor"}}, "note": "At least one result comes from cells or an extract, where the contact may be indirect. For some assays here: Negatives hold for the conditions tested."}
{"sequence": "TTTAAGTATCCCATTAGCATCCAAACAAAGAGTTTTC (double strand) [FOS]", "values": [{"measurement": "binding result", "setting": "[1]", "result": "binds"}, {"measurement": "binding result", "setting": "Sox2 (Mus musculus) [2]", "result": "binds"}, {"measurement": "binding result", "setting": "[3]", "result": "binds"}]}
{"sequence": "CTTACAGCTTCTTTCAAATTACAATGTCCATGGTGGA (double strand) [NmOS]", "values": [{"measurement": "binding result", "setting": "[4]; 20-fold excess, fails to compete, variant of NOS", "result": "no binding"}, {"measurement": "binding result", "setting": "Sox2 (Mus musculus) [5]; 20-fold excess, still competes Sox2 monomer on FOS, variant of NOS", "result": "binds"}, {"measurement": "binding result", "setting": "[6]; 20-fold excess unlabeled competitor, octamer mutant fails to compete, variant of NOS", "result": "no binding"}]}
{"sequence": "CTTACAGCTTCTTTTGCATTACAATGTCCATGGTGGA (double strand) [NOS]", "values": [{"measurement": "binding result", "setting": "[1]; supershifted by both antibodies", "result": "binds"}, {"measurement": "binding result", "setting": "[3]; supershifted by anti-Oct4, poly-dGdC, RT", "result": "binds"}]}
{"sequence": "CTTACAGCTTCTTTTGCATTAACCTGTCCATGGTGGA (double strand) [NOmS]", "values": [{"measurement": "binding result", "setting": "[4]; variant of NOS", "result": "no binding"}, {"measurement": "binding result", "setting": "Sox2 (Mus musculus) [5]; 20-fold excess, fails to compete Sox2 monomer on FOS, variant of NOS", "result": "no binding"}, {"measurement": "binding result", "setting": "[6]; 20-fold excess, Oct4 monomer still competed, variant of NOS", "result": "binds"}]}
{"sequence": "CTTACAGCTTCTTTCAAATTAACCTGTCCATGGTGGA (double strand) [NmOmS]", "values": [{"measurement": "binding result", "setting": "[4]; 20-fold excess, variant of NOS", "result": "no binding"}, {"measurement": "binding result", "setting": "Sox2 (Mus musculus) [5]; 20-fold excess, FOS probe, variant of NOS", "result": "no binding"}, {"measurement": "binding result", "setting": "[6]; 20-fold excess, variant of NOS", "result": "no binding"}]}
{"sequence": "CTGCAGGTGGGATTAACTGTGAATTCA (double strand) [NNS]", "values": [{"measurement": "binding result", "setting": "[4]; [7]", "result": "no binding"}, {"measurement": "binding result", "setting": "Sox2 (Mus musculus) [5]; 20-fold excess non-specific competitor, FOS probe", "result": "no binding"}, {"measurement": "binding result", "setting": "[6]; [7]", "result": "no binding"}]}
